Data: the supplement of paper PMC8728848
The other results are listed elsewhere or left out.

Experiments:
Assay in all cases: glycan array binding signal (z-score within array); higher = stronger binding
Settings in all cases: glycan notation: IUPAC condensed, linker removed
[1] = molecular target: Gal(b1-4)GlcNAc(b1-3)[GlcNAc(b1-6)]Gal(b1-4)GlcNAc
How it was run: (§1)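 The binding signal is a Z-score computed within each array. Data were drawn from 3228 arrays in the Consortium for Functional Glycomics database, restricted to those with a known protein sequence. Scores were averaged over arrays of the same protein sequence at different concentrations or buffers, and over linkers, and negative values can be taken as non-binding.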

[2] = molecular target: Gal(b1-4)GlcNAc(b1-6)Gal(b1-4)GlcNAc
How it was run: as §1

[3] = molecular target: Gal(b1-4)GlcNAc(b1-6)Gal(b1-4)GlcNAc(b1-6)GalNAc
How it was run: as §1

[4] = molecular target: Gal(b1-4)GlcNAc(b1-6)GalNAc
How it was run: as §1

[5] = molecular target: Gal(b1-4)GlcNAc(b1-6)[Gal(b1-3)]GalNAc
How it was run: as §1

Gal3S(b1-3)GalNAc = molecular target: Gal3S(b1-3)GalNAc
How it was run: as §1

Gal3S(b1-3)GlcNAc = molecular target: Gal3S(b1-3)GlcNAc
How it was run: as §1

[6] = molecular target: Gal3S(b1-3)[Fuc(a1-4)]GlcNAc
How it was run: as §1

Gal3S(b1-4)Glc = molecular target: Gal3S(b1-4)Glc
How it was run: as §1

Gal3S(b1-4)Glc6S = molecular target: Gal3S(b1-4)Glc6S
How it was run: as §1

Gal3S(b1-4)GlcNAc = molecular target: Gal3S(b1-4)GlcNAc
How it was run: as §1

Gal3S(b1-4)GlcNAc6S = molecular target: Gal3S(b1-4)GlcNAc6S
How it was run: as §1

[7] = molecular target: Gal3S(b1-4)[Fuc(a1-3)]Glc
How it was run: as §1

Gal3S4S(b1-4)GlcNAc = molecular target: Gal3S4S(b1-4)GlcNAc
How it was run: as §1

Gal3S6S(b1-4)GlcNAc = molecular target: Gal3S6S(b1-4)GlcNAc
How it was run: as §1

Gal3S6S(b1-4)GlcNAc6S = molecular target: Gal3S6S(b1-4)GlcNAc6S
How it was run: as §1

Gal4S(b1-4)GlcNAc = molecular target: Gal4S(b1-4)GlcNAc
How it was run: as §1

Gal4S6S(b1-4)GlcNAc = molecular target: Gal4S6S(b1-4)GlcNAc
How it was run: as §1

Gal6S(b1-4)Glc = molecular target: Gal6S(b1-4)Glc
How it was run: as §1

Gal6S(b1-4)Glc6S = molecular target: Gal6S(b1-4)Glc6S
How it was run: as §1

Gal6S(b1-4)GlcNAc = molecular target: Gal6S(b1-4)GlcNAc
How it was run: as §1

Gal6S(b1-4)GlcNAc6S = molecular target: Gal6S(b1-4)GlcNAc6S
How it was run: as §1

GalNAc(a1-3)Gal = molecular target: GalNAc(a1-3)Gal
How it was run: as §1

GalNAc(a1-3)GalNAc = molecular target: GalNAc(a1-3)GalNAc
How it was run: as §1

GalNAc(b1-3)Gal = molecular target: GalNAc(b1-3)Gal
How it was run: as §1

[8] = molecular target: GalNAc(b1-3)Gal(a1-4)Gal(b1-4)GlcNAc
How it was run: as §1

[9] = molecular target: GalNAc(b1-3)Gal(a1-4)Gal(b1-4)GlcNAc(b1-3)Gal(b1-4)Glc
How it was run: as §1

GalNAc(b1-3)GalNAc = molecular target: GalNAc(b1-3)GalNAc
How it was run: as §1

GalNAc(b1-4)GlcNAc = molecular target: GalNAc(b1-4)GlcNAc
How it was run: as §1

[10] = molecular target: GalNAc(b1-4)GlcNAc(b1-2)Man(a1-3)[GalNAc(b1-4)GlcNAc(b1-2)Man(a1-6)]Man(b1-4)GlcNAc(b1-4)GlcNAc
How it was run: as §1

Glc(a1-4)Glc = molecular target: Glc(a1-4)Glc
How it was run: as §1

Glc(a1-6)Glc(a1-6)Glc = molecular target: Glc(a1-6)Glc(a1-6)Glc
How it was run: as §1

Glc(b1-4)Glc = molecular target: Glc(b1-4)Glc
How it was run: as §1

Glc(b1-6)Glc = molecular target: Glc(b1-6)Glc
How it was run: as §1

GlcA(b1-3)Gal = molecular target: GlcA(b1-3)Gal
How it was run: as §1

GlcA(b1-3)GlcNAc = molecular target: GlcA(b1-3)GlcNAc
How it was run: as §1

GlcA(b1-6)Gal = molecular target: GlcA(b1-6)Gal
How it was run: as §1

[11] = molecular target: GlcNAc(a1-3)Gal(b1-4)GlcNAc
How it was run: as §1

[12] = molecular target: GlcNAc(a1-4)Gal(b1-3)GlcNAc
How it was run: as §1

[13] = molecular target: GlcNAc(a1-4)Gal(b1-4)GalNAc
How it was run: as §1

[14] = molecular target: GlcNAc(a1-4)Gal(b1-4)GlcNAc
How it was run: as §1

[15] = molecular target: GlcNAc(a1-4)Gal(b1-4)GlcNAc(b1-3)Gal(b1-4)Glc
How it was run: as §1

[16] = molecular target: GlcNAc(a1-4)Gal(b1-4)GlcNAc(b1-3)Gal(b1-4)GlcNAc
How it was run: as §1

[17] = molecular target: GlcNAc(a1-4)Gal(b1-4)GlcNAc(b1-3)Gal(b1-4)GlcNAc(b1-3)Gal(b1-4)GlcNAc
How it was run: as §1

[18] = molecular target: GlcNAc(a1-4)Gal(b1-4)GlcNAc(b1-3)Gal(b1-4)[Fuc(a1-3)]GlcNAc(b1-3)Gal(b1-4)[Fuc(a1-3)]GlcNAc
How it was run: as §1

B1: CTLX (Homo sapiens), Q6UXS0 (protein)
chain: SLCPLFWMEFKGHCYRFFPLNKTWAEADLYCSEFSVGRKSAKLASIHSWEENVFVYDLVNSCVPGIPADVWTGLHDHRQEGQFEWTDGSSYDYSYWDGSQPDDGVHADPEEEDCVQIWYRPTSALRSWNDNTCSRKFPFVCKIPSLTIH
glycan array binding signal (z-score) [1]: -0.019 | glycan array binding signal (z-score) [2]: -0.149 | glycan array binding signal (z-score) [3]: 0.499 | glycan array binding signal (z-score) [4]: -0.23 | glycan array binding signal (z-score) [5]: -0.234 | glycan array binding signal (z-score) (Gal3S(b1-3)GalNAc): -0.737 | glycan array binding signal (z-score) (Gal3S(b1-3)GlcNAc): -1.01 | glycan array binding signal (z-score) [6]: -0.77 | glycan array binding signal (z-score) (Gal3S(b1-4)Glc): -0.372 | glycan array binding signal (z-score) (Gal3S(b1-4)Glc6S): 0.152 | glycan array binding signal (z-score) (Gal3S(b1-4)GlcNAc): 1.03 | glycan array binding signal (z-score) (Gal3S(b1-4)GlcNAc6S): -0.961 | glycan array binding signal (z-score) [7]: -0.137 | glycan array binding signal (z-score) (Gal3S4S(b1-4)GlcNAc): -0.848 | glycan array binding signal (z-score) (Gal3S6S(b1-4)GlcNAc): 0.993 | glycan array binding signal (z-score) (Gal3S6S(b1-4)GlcNAc6S): -0.11 | glycan array binding signal (z-score) (Gal4S(b1-4)GlcNAc): 0.292 | glycan array binding signal (z-score) (Gal4S6S(b1-4)GlcNAc): 0.725 | glycan array binding signal (z-score) (Gal6S(b1-4)Glc): -0.13 | glycan array binding signal (z-score) (Gal6S(b1-4)Glc6S): 1.13 | glycan array binding signal (z-score) (Gal6S(b1-4)GlcNAc): 0.34 | glycan array binding signal (z-score) (Gal6S(b1-4)GlcNAc6S): -0.915 | glycan array binding signal (z-score) (GalNAc(a1-3)Gal): -0.098 | glycan array binding signal (z-score) (GalNAc(a1-3)GalNAc): -0.619 | glycan array binding signal (z-score) (GalNAc(b1-3)Gal): -0.647 | glycan array binding signal (z-score) [8]: -0.505 | glycan array binding signal (z-score) [9]: 0.605 | glycan array binding signal (z-score) (GalNAc(b1-3)GalNAc): -0.421 | glycan array binding signal (z-score) (GalNAc(b1-4)GlcNAc): 0.071 | glycan array binding signal (z-score) [10]: 0.305 | glycan array binding signal (z-score) (Glc(a1-4)Glc): 1.17 | glycan array binding signal (z-score) (Glc(a1-6)Glc(a1-6)Glc): 0.21 | glycan array binding signal (z-score) (Glc(b1-4)Glc): -0.404 | glycan array binding signal (z-score) (Glc(b1-6)Glc): -0.705 | glycan array binding signal (z-score) (GlcA(b1-3)Gal): -0.766 | glycan array binding signal (z-score) (GlcA(b1-3)GlcNAc): 0.103 | glycan array binding signal (z-score) (GlcA(b1-6)Gal): -1.51 | glycan array binding signal (z-score) [11]: -0.363 | glycan array binding signal (z-score) [12]: 3.54 | glycan array binding signal (z-score) [13]: 0.403 | glycan array binding signal (z-score) [14]: -0.184 | glycan array binding signal (z-score) [15]: -0.478 | glycan array binding signal (z-score) [16]: 0.831 | glycan array binding signal (z-score) [17]: 0.522 | glycan array binding signal (z-score) [18]: 1.83
